Results are given in words; binding and its absence hold for the method and conditions named. Binding seen in cells or lysates may run through a third protein. Some results given as binding are weak or reduced against the parent protein; the word gives no strength.

In this experiment the target is T1, TRIM33 in the co-IP in HEK293 cells (UniProt Q9UPN9).
T1 sequence: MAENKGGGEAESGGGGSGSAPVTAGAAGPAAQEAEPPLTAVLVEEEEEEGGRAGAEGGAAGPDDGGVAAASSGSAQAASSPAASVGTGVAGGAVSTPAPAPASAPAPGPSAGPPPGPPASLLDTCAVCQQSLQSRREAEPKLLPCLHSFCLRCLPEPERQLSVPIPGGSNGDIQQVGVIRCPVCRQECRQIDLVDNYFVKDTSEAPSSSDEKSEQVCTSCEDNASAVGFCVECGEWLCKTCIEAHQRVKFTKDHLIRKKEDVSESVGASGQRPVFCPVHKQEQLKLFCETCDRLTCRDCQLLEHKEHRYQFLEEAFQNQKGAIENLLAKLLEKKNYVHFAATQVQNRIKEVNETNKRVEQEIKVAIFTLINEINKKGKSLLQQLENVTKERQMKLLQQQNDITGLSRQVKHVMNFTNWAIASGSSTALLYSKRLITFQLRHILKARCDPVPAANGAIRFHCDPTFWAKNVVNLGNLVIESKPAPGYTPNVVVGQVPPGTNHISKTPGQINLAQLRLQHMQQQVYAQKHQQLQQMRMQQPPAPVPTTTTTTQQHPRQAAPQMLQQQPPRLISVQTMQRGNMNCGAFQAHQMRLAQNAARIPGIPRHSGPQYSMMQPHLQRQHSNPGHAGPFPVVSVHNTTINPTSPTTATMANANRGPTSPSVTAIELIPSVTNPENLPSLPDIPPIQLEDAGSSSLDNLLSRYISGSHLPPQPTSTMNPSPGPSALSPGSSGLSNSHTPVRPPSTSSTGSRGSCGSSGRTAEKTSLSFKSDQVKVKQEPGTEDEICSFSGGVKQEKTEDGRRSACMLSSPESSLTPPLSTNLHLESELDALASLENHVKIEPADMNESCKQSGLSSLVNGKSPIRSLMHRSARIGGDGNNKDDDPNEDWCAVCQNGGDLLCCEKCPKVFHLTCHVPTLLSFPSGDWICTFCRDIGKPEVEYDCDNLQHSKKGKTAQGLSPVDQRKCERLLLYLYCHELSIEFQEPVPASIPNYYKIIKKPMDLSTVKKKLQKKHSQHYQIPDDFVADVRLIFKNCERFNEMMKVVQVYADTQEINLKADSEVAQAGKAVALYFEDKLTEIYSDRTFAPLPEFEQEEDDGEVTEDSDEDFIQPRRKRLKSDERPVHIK
Nature of the experiment: co-IP; HEK293 cell lysates incubated with the corresponding antibodies and Protein A/G beads at 4 °C overnight; beads washed with PBST; western blot.

“P53 in the co-IP in HEK293 cells (from UniProt P04637 1-393)”: the binding entry is recorded as “binds”.
